Reference: article PMC11536020

Protein sequences, listed by entry. Tags and fused reporters are not part of them.
UniProt Q96RT1: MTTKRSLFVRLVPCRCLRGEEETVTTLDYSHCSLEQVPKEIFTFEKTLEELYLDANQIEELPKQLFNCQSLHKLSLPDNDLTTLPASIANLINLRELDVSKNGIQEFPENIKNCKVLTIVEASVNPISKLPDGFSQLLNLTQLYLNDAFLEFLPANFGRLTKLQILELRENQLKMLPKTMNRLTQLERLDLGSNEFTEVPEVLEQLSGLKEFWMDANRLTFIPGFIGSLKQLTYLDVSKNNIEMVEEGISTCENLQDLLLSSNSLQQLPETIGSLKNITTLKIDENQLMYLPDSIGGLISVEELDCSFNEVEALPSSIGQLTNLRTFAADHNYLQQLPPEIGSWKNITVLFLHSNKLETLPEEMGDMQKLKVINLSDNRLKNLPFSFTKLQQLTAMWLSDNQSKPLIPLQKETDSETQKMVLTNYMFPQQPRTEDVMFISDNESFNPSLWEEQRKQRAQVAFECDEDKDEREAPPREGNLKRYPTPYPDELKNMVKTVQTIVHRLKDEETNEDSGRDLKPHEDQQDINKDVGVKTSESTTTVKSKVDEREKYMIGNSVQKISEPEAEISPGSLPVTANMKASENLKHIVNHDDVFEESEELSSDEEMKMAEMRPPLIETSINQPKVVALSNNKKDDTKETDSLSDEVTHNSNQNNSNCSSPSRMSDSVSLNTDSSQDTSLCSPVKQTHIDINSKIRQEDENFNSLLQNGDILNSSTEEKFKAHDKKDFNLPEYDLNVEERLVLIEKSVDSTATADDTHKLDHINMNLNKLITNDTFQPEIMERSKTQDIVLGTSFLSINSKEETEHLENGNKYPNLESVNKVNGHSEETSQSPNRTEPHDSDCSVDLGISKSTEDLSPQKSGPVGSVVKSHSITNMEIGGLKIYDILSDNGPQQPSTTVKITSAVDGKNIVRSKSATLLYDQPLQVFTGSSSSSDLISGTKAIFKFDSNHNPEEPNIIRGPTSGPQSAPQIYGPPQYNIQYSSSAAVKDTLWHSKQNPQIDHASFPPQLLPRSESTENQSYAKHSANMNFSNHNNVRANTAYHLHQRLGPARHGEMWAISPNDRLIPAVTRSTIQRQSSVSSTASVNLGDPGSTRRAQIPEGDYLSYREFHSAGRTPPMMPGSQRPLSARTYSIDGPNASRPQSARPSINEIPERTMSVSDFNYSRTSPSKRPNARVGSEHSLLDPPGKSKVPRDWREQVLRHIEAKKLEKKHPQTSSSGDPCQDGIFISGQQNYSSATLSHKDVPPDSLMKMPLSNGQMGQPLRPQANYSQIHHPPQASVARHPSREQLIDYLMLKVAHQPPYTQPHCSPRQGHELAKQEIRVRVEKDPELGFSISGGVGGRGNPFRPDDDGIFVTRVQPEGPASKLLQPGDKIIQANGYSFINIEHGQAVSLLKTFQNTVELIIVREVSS

Columns and labels:
[1] = molecular target: T1, NoxO1-BioID2 fusion construct (human) (UniProt Q8NFA2); assay: proximity labelling; BioID: biotinylated proteins precipitated with streptavidin Dynabeads from Hek293 overexpressing NoxO1-BioID2 or empty vector; detection by Western blot
T1 sequence: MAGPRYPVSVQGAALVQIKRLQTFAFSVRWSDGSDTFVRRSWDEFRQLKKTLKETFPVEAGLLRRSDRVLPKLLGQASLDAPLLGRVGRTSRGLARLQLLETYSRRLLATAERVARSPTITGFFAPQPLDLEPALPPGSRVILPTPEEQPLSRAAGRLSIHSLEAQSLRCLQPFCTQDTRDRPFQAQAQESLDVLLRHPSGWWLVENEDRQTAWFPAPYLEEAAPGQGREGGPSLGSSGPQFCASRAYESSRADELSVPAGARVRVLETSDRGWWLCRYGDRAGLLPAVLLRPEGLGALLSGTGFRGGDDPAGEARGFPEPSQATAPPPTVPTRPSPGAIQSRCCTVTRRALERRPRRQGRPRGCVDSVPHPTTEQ

[2] = molecular target: T1, NoxO1-BioID2 fusion construct (human); assay: proximity labelling; BioID: N- or C-terminal NoxO1-BioID2 fusion transiently overexpressed in Hek293 without Nox1 and NoxA1; 50 uM biotin 24 h; streptavidin C1 magnetic beads; GelC-MS2, label-free quantitation; BioID2 only as control
[3] = molecular target: T1, NoxO1-BioID2 fusion construct (human); assay: proximity labelling; BioID as a1, but with Nox1 and NoxA1 overexpressed together with NoxO1-BioID; read out by mass spectrometry

Q: “Epidermal growth factor receptor (EGFR) (from UniProt P00533 25-1210)” was tested. Which binding [1] did it give?
A: binds

Q: “ErbB2 interacting protein (Erbin) (from UniProt Q96RT1 1-1412)” was tested. Which binding [2] did it give?
A: binds

B1: NoxA1 (protein, UniProt Q86UR1 1-476)
chain: MASLGDLVRAWHLGAQAVDRGDWARALHLFSGVPAPPARLCFNAGCVHLLAGDPEAALRAFDQAVTKDTCMAVGFFQRGVANFQLARFQEALSDFWLALEQLRGHAAIDYTQLGLRFKLQAWEVLHNVASAQCQLGLWTEAASSLREAMSKWPEGSLNGLDSALDQVQRRGSLPPRQVPRGEVFRPHRWHLKHLEPVDFLGKAKVVASAIPDDQGWGVRPQQPQGPGANHDARSLIMDSPRAGTHQGPLDAETEVGADRCTSTAYQEQRPQVEQVGKQAPLSPGLPAMGGPGPGPCEDPAGAGGAGAGGSEPLVTVTVQCAFTVALRARRGADLSSLRALLGQALPHQAQLGQLSYLAPGEDGHWVPIPEEESLQRAWQDAAACPRGLQLQCRGAGGRPVLYQVVAQHSYSAQGPEDLGFRQGDTVDVLCEVDQAWLEGHCDGRIGIFPKCFVVPAGPRMSGAPGRLPRSQQGDQP
Q: For B1, which binding [3] is on record?
A: binds

Results are given in words; binding and its absence hold for the method and conditions named. Binding seen in cells or lysates may run through a third protein. These calls come from enrichment with a bait or labelling near it, and not all partners need be listed. Sequences can lack the tags named with a protein.
